Experimental data published in paper PMC7862700.
This is a selection; strong and weak results do not stand in their true shares. At the low end of the ranking the order means little.

The chains behind the UniProt entries cited, without tags or fusion partners. Where a name states a change or a piece, a line headed by the entry shows the natural chain unless it says otherwise.
UniProt P41161: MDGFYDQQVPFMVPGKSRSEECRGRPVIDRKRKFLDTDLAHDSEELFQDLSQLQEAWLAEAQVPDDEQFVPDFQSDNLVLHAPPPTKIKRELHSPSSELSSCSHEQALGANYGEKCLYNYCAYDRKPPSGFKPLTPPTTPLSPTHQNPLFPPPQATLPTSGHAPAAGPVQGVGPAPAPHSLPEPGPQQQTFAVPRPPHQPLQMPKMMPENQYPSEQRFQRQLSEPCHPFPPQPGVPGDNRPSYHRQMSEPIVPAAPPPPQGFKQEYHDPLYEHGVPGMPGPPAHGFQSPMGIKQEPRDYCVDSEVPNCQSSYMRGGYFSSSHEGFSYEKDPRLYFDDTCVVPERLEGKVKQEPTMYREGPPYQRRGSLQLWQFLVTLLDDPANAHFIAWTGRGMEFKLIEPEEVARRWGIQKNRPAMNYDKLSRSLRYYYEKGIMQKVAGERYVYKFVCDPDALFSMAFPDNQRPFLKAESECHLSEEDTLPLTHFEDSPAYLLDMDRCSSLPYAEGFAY
UniProt Q99607: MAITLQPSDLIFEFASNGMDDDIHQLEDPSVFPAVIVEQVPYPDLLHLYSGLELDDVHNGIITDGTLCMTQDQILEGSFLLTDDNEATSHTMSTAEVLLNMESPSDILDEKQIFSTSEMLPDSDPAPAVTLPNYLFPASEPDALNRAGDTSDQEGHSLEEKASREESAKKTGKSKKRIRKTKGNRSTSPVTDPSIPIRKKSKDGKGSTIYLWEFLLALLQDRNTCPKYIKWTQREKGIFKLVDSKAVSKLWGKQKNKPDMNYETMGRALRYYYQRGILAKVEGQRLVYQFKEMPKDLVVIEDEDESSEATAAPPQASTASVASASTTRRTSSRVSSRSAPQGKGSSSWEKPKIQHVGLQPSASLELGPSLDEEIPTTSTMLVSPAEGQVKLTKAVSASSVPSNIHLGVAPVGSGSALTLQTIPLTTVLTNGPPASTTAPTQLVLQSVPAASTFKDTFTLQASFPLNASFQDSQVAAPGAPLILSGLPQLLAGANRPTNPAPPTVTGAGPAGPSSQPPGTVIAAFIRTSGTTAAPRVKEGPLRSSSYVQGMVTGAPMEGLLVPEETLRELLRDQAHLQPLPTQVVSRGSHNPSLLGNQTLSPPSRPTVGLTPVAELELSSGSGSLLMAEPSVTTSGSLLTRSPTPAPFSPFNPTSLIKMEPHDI
UniProt Q01892: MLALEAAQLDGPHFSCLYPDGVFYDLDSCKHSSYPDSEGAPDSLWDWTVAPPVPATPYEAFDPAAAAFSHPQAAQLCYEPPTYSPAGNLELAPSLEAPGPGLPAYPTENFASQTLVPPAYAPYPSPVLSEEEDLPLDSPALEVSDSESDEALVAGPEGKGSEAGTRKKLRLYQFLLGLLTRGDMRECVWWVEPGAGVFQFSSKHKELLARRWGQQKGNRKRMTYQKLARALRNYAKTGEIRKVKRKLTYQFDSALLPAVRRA

Tests used:
Assay in all cases: DAPPL (digital affinity profiling via proximity ligation, sequencing)
Details in all cases: 10 mM Tris-HCl pH 7.5, 50 mM NaCl, 1 mM DTT, 4% glycerol, room temperature, 30 min; GST-TFs on glutathione beads, 16-mer random dsDNA library, 0.1% …; high values mean tight binding; double strand, one strand shown; scale: fold enrichment (6-mer frequency, TF over GST control)
FLI1 = target: T1, FLI1 (UniProt Q01543)
T1 sequence: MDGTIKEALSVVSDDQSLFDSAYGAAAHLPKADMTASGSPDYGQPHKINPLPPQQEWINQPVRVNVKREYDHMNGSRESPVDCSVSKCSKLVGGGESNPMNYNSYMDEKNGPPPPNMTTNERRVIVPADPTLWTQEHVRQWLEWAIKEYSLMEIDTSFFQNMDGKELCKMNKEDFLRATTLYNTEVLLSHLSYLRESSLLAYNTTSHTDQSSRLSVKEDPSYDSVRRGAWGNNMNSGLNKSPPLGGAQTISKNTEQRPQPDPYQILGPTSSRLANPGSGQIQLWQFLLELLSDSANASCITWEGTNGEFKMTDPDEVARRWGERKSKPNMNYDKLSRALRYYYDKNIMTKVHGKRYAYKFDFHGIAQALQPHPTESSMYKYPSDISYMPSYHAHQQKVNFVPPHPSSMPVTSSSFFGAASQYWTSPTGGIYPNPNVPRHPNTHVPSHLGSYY

EHF = target: T2, EHF (UniProt Q9NZC4)
T2 sequence: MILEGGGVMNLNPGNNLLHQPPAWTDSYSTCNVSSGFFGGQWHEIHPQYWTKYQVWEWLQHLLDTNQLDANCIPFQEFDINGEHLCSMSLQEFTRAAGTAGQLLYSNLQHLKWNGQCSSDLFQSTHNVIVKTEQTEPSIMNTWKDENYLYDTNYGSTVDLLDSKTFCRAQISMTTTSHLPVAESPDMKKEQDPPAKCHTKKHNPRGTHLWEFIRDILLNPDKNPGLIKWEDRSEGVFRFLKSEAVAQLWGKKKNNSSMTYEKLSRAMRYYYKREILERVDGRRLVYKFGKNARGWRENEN

ETV5 = ETV5 (UniProt P41161)
ELF4 = ELF4 (UniProt Q99607)
ETV3L = target: T3, ETV3L (UniProt Q6ZN32)
T3 sequence: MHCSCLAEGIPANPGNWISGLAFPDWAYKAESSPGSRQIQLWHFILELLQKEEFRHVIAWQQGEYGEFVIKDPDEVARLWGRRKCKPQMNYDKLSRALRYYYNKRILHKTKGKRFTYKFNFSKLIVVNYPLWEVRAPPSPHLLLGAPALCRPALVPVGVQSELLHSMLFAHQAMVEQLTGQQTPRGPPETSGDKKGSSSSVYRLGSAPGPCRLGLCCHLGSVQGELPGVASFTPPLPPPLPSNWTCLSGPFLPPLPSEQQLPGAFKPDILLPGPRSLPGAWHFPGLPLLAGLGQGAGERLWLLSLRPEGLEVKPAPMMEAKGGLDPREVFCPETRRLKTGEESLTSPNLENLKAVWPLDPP

SPIB = SPIB (UniProt Q01892)

Sequence	binding signal (FLI1)	binding signal (EHF)	binding signal (ETV5)	binding signal (ELF4)	binding signal (ETV3L)	binding signal (SPIB)
GCAGAT	0.935	0.914	0.978	0.956	0.904	
GCCTAG	0.957	0.94	0.901	0.937	0.954	0.834
AGGGTT	0.953	0.947	0.973	1.03	0.912	0.974
CGCAAA	0.986		0.953	0.971	0.941	
CGGCCC	1.05	0.912	0.904	1.03	0.968	
TGGGCG	0.84	0.928	0.84	0.948	0.898	0.869
TTCAGA	0.899	0.933	0.883	0.967	0.99	0.899
AGTATA	0.972	0.99	0.976	0.998		0.972
GCCTGG	0.98	0.966	0.948	0.884		
GATAAC	0.98	0.955	0.934	0.969	0.962	0.964
TCAGTA	0.908	0.979	0.972	0.994	0.979	0.888
GTGCGC	1.02	1	0.953	0.967	0.904	0.961
CAAAAG	0.969		0.971	0.996	0.958	0.989
TAGGCA	0.994	0.959	0.966	1.01	1.02	1.02
AAGGTC	0.959		0.998	0.996	0.938	0.997
GTGTTA	0.997	0.912	0.98	0.969	0.997	0.935
GATGGA	0.877	0.883	0.882	0.869	0.863	0.935
TAATTC	1.5		1.44	1.48		1.51
GTGTCT	0.998	1.06	0.989	1.02		1.03
CATTAG	0.987	1	0.896	0.98	0.917	0.999
AGCCAC	0.974		1.01	0.984	0.956	0.944
ATAGGG	0.955		1.03	0.904	0.972	0.993
ATCACG	0.97		0.998	0.96	0.996	0.925
GTTCAG	0.932	0.849	0.875	0.859	0.909	0.867
CCATAG	0.873	0.992	0.955	0.889	0.94	0.986
CGACAA	1.17	1.24	1.24	1.18		

Shown field by field: entries from further up
ATAGGG
  binding signal (FLI1): 0.955; binding signal (ETV5): 1.03; binding signal (ELF4): 0.904; binding signal (ETV3L): 0.972; binding signal (SPIB): 0.993
ATCACG
  binding signal (FLI1): 0.97; binding signal (ETV5): 0.998; binding signal (ELF4): 0.96; binding signal (ETV3L): 0.996; binding signal (SPIB): 0.925
